Reference: PMC7218866

Target: lysozyme (UniProt P00698)
Test: binding assay
Details: literature value, 25 mM trizma, 192 mM glycine, 5 mM potassium phosphate, pH 8.3; 5' thiol-C6 (SH-C6), immobilized on gold in SAM; 1x HBS, pH 7.4, redox reporter (ferricyanide or methylene blue) in solution; aptamer on gold electrode; temperature not stated; commercial protein; single-stranded DNA

AGCAGCACAGAGGTCAGATGGCAGGTAAGCAGGCGGCTCACAAAACCATTCGCATGCGGC [lysozyme aptamer (thiolated)]
Kd: 3 nM

For at least one entry, the source does not settle the construct or the ends of the probe.
